Measurements reported in PubChem BioAssay AID1671195 (Yale University, 2021)

Assay: 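Genes whose knockdown alters LDL uptake in liver cancer cells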 (primary screen)
System: human Huh7 hepatoma cells
Knock-down reagent: siRNA pool against human genes, 18 nM
Duration: about 2 to 2.5 days of knockdown, then 8 h LDL uptake
Challenge: DiI-labelled LDL at 30 µg/ml for 8 h, in lipoprotein-deficient serum medium
Measurement: 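Per-cell DiI-LDL intensity by automated imaging; well means scaled to the plate median and given as a robust z-score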
Direction: robust z-score: higher = more LDL uptake after knockdown
Hit rule: 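Active when two or more replicates show a robust z-score above 2 or below -2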
Here is a random part of about 22,000 deposited reagents. Of all reagents, about 1,510 (6.9%) were called active. 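Active includes knockdowns raising or lowering LDL uptake; positive z-scores mean more uptake, negative mean less.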 Entries without a mark were called inactive. Reagents against one gene are numbered here.

With LAPTM4A (lysosomal protein transmembrane 4 alpha), what does the deposit list?
robust z-score, replicate 1: -0.328; robust z-score, replicate 2: 0.311; robust z-score, replicate 3: -1.86

For MAGED2 (MAGE family member D2), how do the results read?
robust z-score, replicate 1: 0.127; robust z-score, replicate 2: -1.08; robust z-score, replicate 3: -0.429

How did the screen score HEY1?
robust z-score, replicate 1: -1.03; robust z-score, replicate 2: -0.505; robust z-score, replicate 3: 0.0335

With OR2J1 (olfactory receptor family 2 subfamily J member 1), what was measured?
robust z-score, replicate 1: -0.218; robust z-score, replicate 2: 0.335; robust z-score, replicate 3: -0.917

Which result is listed for ITM2A (integral membrane protein 2A)?
robust z-score, replicate 1: 0.739; robust z-score, replicate 2: 0.273; robust z-score, replicate 3: -0.49

What did the screen give for HPS1 (HPS1 biogenesis of lysosomal organelles complex 3 subunit 1)?
robust z-score, replicate 1: -0.44; robust z-score, replicate 2: -0.842; robust z-score, replicate 3: -0.385

With LOC441113 (retired record), how do the results read?
robust z-score, replicate 1: -0.835; robust z-score, replicate 2: -1.27; robust z-score, replicate 3: -1.24

For ITGB5 (integrin subunit beta 5), how do the results read?
robust z-score, replicate 1: 0.705; robust z-score, replicate 2: -1.14; robust z-score, replicate 3: -1

How did the screen score LOC391733 (retired record)?
robust z-score, replicate 1: -0.236; robust z-score, replicate 2: -0.64; robust z-score, replicate 3: -0.0701

What is on record for AMT (aminomethyltransferase)?
robust z-score, replicate 1: 0.261; robust z-score, replicate 2: 0.156; robust z-score, replicate 3: -0.183

What did the screen give for ANKLE1 (ankyrin repeat and LEM domain containing 1)?
robust z-score, replicate 1: 0.771; robust z-score, replicate 2: 0.751; robust z-score, replicate 3: 0.741

For FAM227B (family with sequence similarity 227 member B), how do the results read?
robust z-score, replicate 1: 0.591; robust z-score, replicate 2: 0.557; robust z-score, replicate 3: -0.202

How did the screen score KGD4 (alpha-ketoglutarate dehydrogenase subunit 4)?
robust z-score, replicate 1: -0.176; robust z-score, replicate 2: -0.417; robust z-score, replicate 3: -0.496

What did the screen give for TP53I3 (tumor protein p53 inducible protein 3)?
robust z-score, replicate 1: 1.13; robust z-score, replicate 2: 1.99; robust z-score, replicate 3: 1.44

For DNAJB14 (DnaJ heat shock protein family (Hsp40) member B14), what was measured?
robust z-score, replicate 1: -0.547; robust z-score, replicate 2: -0.682; robust z-score, replicate 3: -0.329

Which result is listed for ABCA3 (ATP binding cassette subfamily A member 3)?
robust z-score, replicate 1: -1.5; robust z-score, replicate 2: -1.07; robust z-score, replicate 3: -1.24

Which result is listed for ZNF154 (zinc finger protein 154)?
robust z-score, replicate 1: -0.612; robust z-score, replicate 2: -0.384; robust z-score, replicate 3: -1.16

For RPL19P20 (ribosomal protein L19 pseudogene 20), what was measured?
robust z-score, replicate 1: -0.389; robust z-score, replicate 2: 0.205; robust z-score, replicate 3: 0.337

How did the screen score HDHD2 (haloacid dehalogenase like hydrolase domain containing 2)?
robust z-score, replicate 1: -0.695; robust z-score, replicate 2: -1.04; robust z-score, replicate 3: -0.321

What did the screen give for LOC392554 (retired record)?
robust z-score, replicate 1: 0.441; robust z-score, replicate 2: 1.38; robust z-score, replicate 3: 1.19

What is on record for LOC390557 (retired record)?
robust z-score, replicate 1: -0.636; robust z-score, replicate 2: -0.742; robust z-score, replicate 3: -0.823

With SDE2 (spliceosome associated SDE2), what was measured?
robust z-score, replicate 1: 0.101; robust z-score, replicate 2: 0.264; robust z-score, replicate 3: 1.24

With LOC441010 (retired record), how do the results read?
robust z-score, replicate 1: -0.271; robust z-score, replicate 2: -0.391; robust z-score, replicate 3: 0.336

For GCK (glucokinase), what was measured?
robust z-score, replicate 1: 1.84; robust z-score, replicate 2: 1.58; robust z-score, replicate 3: 1.84

What did the screen give for TNFAIP2 (TNF alpha induced protein 2)?
robust z-score, replicate 1: -0.534; robust z-score, replicate 2: -1.66; robust z-score, replicate 3: 0.902

With LRRC17 (leucine rich repeat containing 17), how do the results read?
robust z-score, replicate 1: 0.342; robust z-score, replicate 2: -1.51; robust z-score, replicate 3: -0.565

With MRRFP1 (mitochondrial ribosome recycling factor pseudogene 1), how do the results read?
robust z-score, replicate 1: -0.418; robust z-score, replicate 2: -0.416; robust z-score, replicate 3: -0.408

Which result is listed for DLG2 (discs large MAGUK scaffold protein 2) #1?
robust z-score, replicate 1: 1.33; robust z-score, replicate 2: 1.2; robust z-score, replicate 3: 1.56

Which result is listed for DLG2 (discs large MAGUK scaffold protein 2) #2?
robust z-score, replicate 1: -1.07; robust z-score, replicate 2: -0.113; robust z-score, replicate 3: -0.516

For MGAT4FP (MGAT4 family member F, pseudogene), how do the results read?
robust z-score, replicate 1: -0.966; robust z-score, replicate 2: -0.594; robust z-score, replicate 3: -0.963

Part of the list above, showing only “robust z-score, replicate 2”:
GCK (glucokinase)	1.58
TNFAIP2 (TNF alpha induced protein 2)	-1.66
LRRC17 (leucine rich repeat containing 17)	-1.51
MRRFP1 (mitochondrial ribosome recycling factor pseudogene 1)	-0.416
